In US20140370521A1, “IDENTIFICATION OF TWO NOVEL BIOMARKERS FOR NIEMANN-PICK DISEASE TYPE C” (The USA , as Represented by the Secretary, Department of …, priority 2011, published 2014):
What was measured is the transcript of the gene that encodes the chain shown.

B1: Slpi (protein, UniProt P97430 26-131, looked up)
Antileukoproteinase: GKNDAIKIGACPAKKPAQCLKLEKPQCRTDWECPGKQRCCQDACGSKCVNPVPIRKPVWRKPGRCVKTQARCMMLNPPNVCQRDGQCDGKYKCCEGICGKVCLPPM
B2: Afm (protein, UniProt O89020 22-608, looked up)
Afamin: LPTKPQDVDHFNATQKFIDENTTYLAIIAFSQYVQEASFDEVETLVKVMLDYRDRCWADNTLPECSKTANDAIQDMLCDMEGLPQKHNFSHCCGKAGFPRRLCFFYNKKANVGFLPPFPTLDPEEKCQAYKNNSESFLHLYMYEVARRNPFVFAPVLLAVAAWFEEAATTCCEQQQKATCFQAKAAPITQYLKASSSYQRNVCGALIKFGPKVLNSINVAVFSKKFPKIGFKDLTTLLEDVSSMYEGCCEGDVVHCIRSQSQVVNHICSKQDSISSKIKVCCEKKTLEREACIINANKDDRPEGLSLREAKFTESENVCQERDSDPDKFFAEFIYEYSRRHPDLSTPELLRITKVYMDFLEDCCSRENPAGCYRHVEDKFNETTQRSLAMVQQECKQFQELGKDTLQRHFLVKFTKAAPQLPMEELVSLSKEMVAALTTCCTLSDEFACVDNLADLVLGELCGVNTNRTINPAVDHCCKTDFAFRRHCFEHLKADTTYELPSVSALVSALHTDWCQPRKEDLQNKKHRFLVNLVKWMPGITDEEWLCLFTKFTAAREECSEVQEPESCFSPESSKTGDESQATEKQR
B3: Cfh (protein, UniProt P06909 19-1234, looked up)
Complement factor H: EDCKGPPPRENSEILSGSWSEQLYPEGTQATYKCRPGYRTLGTIVKVCKNGKWVASNPSRICRKKPCGHPGDTPFGSFRLAVGSQFEFGAKVVYTCDDGYQLLGEIDYRECGADGWINDIPLCEVVKCLPVTELENGRIVSGAAETDQEYYFGQVVRFECNSGFKIEGHKEIHCSENGLWSNEKPRCVEILCTPPRVENGDGINVKPVYKENERYHYKCKHGYVPKERGDAVCTGSGWSSQPFCEEKRCSPPYILNGIYTPHRIIHRSDDEIRYECNYGFYPVTGSTVSKCTPTGWIPVPRCTLKPCEFPQFKYGRLYYEESLRPNFPVSIGNKYSYKCDNGFSPPSGYSWDYLRCTAQGWEPEVPCVRKCVFHYVENGDSAYWEKVYVQGQSLKVQCYNGYSLQNGQDTMTCTENGWSPPPKCIRIKTCSASDIHIDNGFLSESSSIYALNRETSYRCKQGYVTNTGEISGSITCLQNGWSPQPSCIKSCDMPVFENSITKNTRTWFKLNDKLDYECLVGFENEYKHTKGSITCTYYGWSDTPSCYERECSVPTLDRKLVVSPRKEKYRVGDLLEFSCHSGHRVGPDSVQCYHFGWSPGFPTCKGQVASCAPPLEILNGEINGAKKVEYSHGEVVKYDCKPRFLLKGPNKIQCVDGNWTTLPVCIEEERTCGDIPELEHGSAKCSVPPYHHGDSVEFICEENFTMIGHGSVSCISGKWTQLPKCVATDQLEKCRVLKSTGIEAIKPKLTEFTHNSTMDYKCRDKQEYERSICINGKWDPEPNCTSKTSCPPPPQIPNTQVIETTVKYLDGEKLSVLCQDNYLTQDSEEMVCKDGRWQSLPRCIEKIPCSQPPTIEHGSINLPRSSEERRDSIESSSHEHGTTFSYVCDDGFRIPEENRITCYMGKWSTPPRCVGLPCGPPPSIPLGTVSLELESYQHGEEVTYHCSTGFGIDGPAFIICEGGKWSDPPKCIKTDCDVLPTVKNAIIRGKSKKSYRTGEQVTFRCQSPYQMNGSDTVTCVNSRWIGQPVCKDNSCVDPPHVPNATIVTRTKNKYLHGDRVRYECNKPLELFGQVEVMCENGIWTEKPKCRDSTGKCGPPPPIDNGDITSLSLPVYEPLSSVEYQCQKYYLLKGKKTITCRNGKWSEPPTCLHACVIPENIMESHNIILKWRHTEKIYSHSGEDIEFGCKYGYYKARDSPPFRTKCINGTINYPTCV
B4: Tfpi2 (protein, UniProt O35536 23-230, looked up)
Tissue factor pathway …: LTSVSAQGNNLEICLLPLDAGPCQALIPKFYYDRDQQKCRRFNYGGCLGNANNFHSRDLCQQTCGSIEKVPPVCRSELKTYPCDKPNIRFFFNLNTMTCEPLRPGLCSRTINVFSEEATCKGLCEPRKHIPSFCSSPKDEGLCSANVTRFYFNSRNKTCETFTYTGCGGNENNFYYLDACHRACVKGWKKPKRWKIGDFLPRFWKHLS
B5: Tgfbi (protein, UniProt P82198 24-683, looked up)
Transforming growth …: GPAKSPYQLVLQHSRLRGRQHGPNVCAVQKVIGTNKKYFTNCKQWYQRKICGKSTVISYECCPGYEKVPGEKGCPAALPLSNLYETMGVVGSTTTQLYTDRTEKLRPEMEGPGSFTIFAPSNEAWSSLPAEVLDSLVSNVNIELLNALRYHMVDRRVLTDELKHGMTLTSMYQNSNIQIHHYPNGIVTVNCARLLKADHHATNGVVHLIDKVISTITNNIQQIIEIEDTFETLRAAVAASGLNTVLEGDGQFTLLAPTNEAFEKIPAETLNRILGDPEALRDLLNNHILKSAMCAEAIVAGMSMETLGGTTLEVGCSGDKLTINGKAVISNKDILATNGVIHFIDELLIPDSAKTLLELAGESDVSTAIDILKQAGLDTHLSGKEQLTFLAPLNSVFKDGVPRIDAQMKTLLLNHMVKEQLASKYLYSGQTLDTLGGKKLRVFVYRNSLCIENSCIAAHDKRGRFGTLFTMDRMLTPPMGTVMDVLKGDNRFSMLVAAIQSAGLMEILNREGVYTVFAPTNEAFQAMPPEELNKLLANAKELTNILKYHIGDEILVSGGIGALVRLKSLQGDKLEVSSKNNVVSVNKEPVAETDIMATNGVVYAINTVLQPPANRPQERGDELADSALEIFKQASAYSRAAQRSVRLAPVYQRLLERMKH
B6: Bgn (protein, UniProt P28653 38-369, looked up)
Biglycan: DEEASGSDTTSGVPDLDSVTPTFSAMCPFGCHCHLRVVQCSDLGLKTVPKEISPDTTLLDLQNNDISELRKDDFKGLQHLYALVLVNNKISKIHEKAFSPLRKLQKLYISKNHLVEIPPNLPSSLVELRIHDNRIRKVPKGVFSGLRNMNCIEMGGNPLENSGFEPGAFDGLKLNYLRISEAKLTGIPKDLPETLNELHLDHNKIQAIELEDLLRYSKLYRLGLGHNQIRMIENGSLSFLPTLRELHLDNNKLSRVPAGLPDLKLLQVVYLHSNNITKVGINDFCPMGFGVKRAYYNGISLFNNPVPYWEVQPATFRCVTDRLAIQFGNYKK
B7: Ccl3 (protein, UniProt P10855 24-92, looked up)
C-C motif chemokine 3: APYGADTPTACCFSYSRKIPRQFIVDYFETSSLCSQPGVIFLTKRNRQICADSKETWVQEYITDLELNA
B8: Ccl6 (protein, UniProt P27784 22-116, looked up)
C-C motif chemokine 6: GLIQEMEKEDRRYNPPIIHQGFQDTSSDCCFSYATQIPCKRFIYYFPTSGGCIKPGIIFISRRGTQVCADPSDRRVQRCLSTLKQGPRSGNKVIA
B9: Cd44 (protein, UniProt P15379 23-778, looked up)
CD44 antigen: QIDLNVTCRYAGVFHVEKNGRYSISRTEAADLCQAFNSTLPTMDQMKLALSKGFETCRYGFIEGNVVIPRIHPNAICAANHTGVYILVTSNTSHYDTYCFNASAPPEEDCTSVTDLPNSFDGPVTITIVNRDGTRYSKKGEYRTHQEDIDASNIIDDDVSSGSTIEKSTPEGYILHTYLPTEQPTGDQDDSFFIRSTLATIASTVHSKSHAAAQKQNNWIWSWFGNSQSTTQTQEPTTSATTALMTTPETPPKRQEAQNWFSWLFQPSESKSHLHTTTKMPGTESNTNPTGWEPNEENEDETDTYPSFSGSGIDDDEDFISSTIATTPRVSARTEDNQDWTQWKPNHSNPEVLLQTTTRMADIDRISTSAHGENWTPEPQPPFNNHEYQDEEETPHATSTTPNSTAEAAATQQETWFQNGWQGKNPPTPSEDSHVTEGTTASAHNNHPSQRITTQSQEDVSWTDFFDPISHPMGQGHQTESKDTDSSHSTTLQPTAAPNTHLVEDLNRTGPLSVTTPQSHSQNFSTLHGEPEEDENYPTTSILPSSTKSSAKDARRGGSLPTDTTTSVEGYTFQYPDTMENGTLFPVTPAKTEVFGETEVTLATDSNVNVDGSLPGDRDSSKDSRGSSRTVTHGSELAGHSSANQDSGVTTTSGPMRRPQIPEWLIILASLLALALILAVCIAVNSRRRCGQKKKLVINGGNGTVEDRKPSELNGEASKSQEMVHLVNKEPSETPDQCMTADETRNLQSVDMKIGV
B10: Cd48 (protein, UniProt P18181 23-217, looked up)
CD48 antigen: FQGHSIPDINATTGSNVTLKIHKDPLGPYKRITWLHTKNQKILEYNYNSTKTIFESEFKGRVYLEENNGALHISNVRKEDKGTYYMRVLRETENELKITLEVFDPVPKPSIEINKTEASTDSCHLRLSCEVKDQHVDYTWYESSGPFPKKSPGYVLDLIVTPQNKSTFYTCQVSNPVSSKNDTVYFTLPCDLARS

test system: Npc1-/- mouse liver; test: Liver gene expression microarray, Npc1-/- versus control mice (Affymetrix Mouse GeneChip 1.0 ST); details: 1 week of age, negative = lower in Npc1−/−

Molecule | FC (fold-change of expression between Npc1−/− and control mice)
B1 | 1.42
B2 | −1.24
B3 | −1.33

same assay, conditions: 3 weeks of age, negative = lower in Npc1−/−

Molecule | FC (fold-change of expression between Npc1−/− and control mice)
B4 | −1.38
B5 | 1.34
B2 | −1.35
B6 | 1.34
B7 | 1.70
B8 | 1.57
B9 | 1.48
B10 | 1.63
B3 | −1.55

same assay, conditions: 5 weeks of age, negative = lower in Npc1−/−

Molecule | FC (fold-change of expression between Npc1−/− and control mice)
B6 | 1.35
B7 | 2.30
B8 | 1.83
B9 | 1.63
B10 | 1.90

same assay, conditions: 7 weeks of age, negative = lower in Npc1−/−

Molecule | FC (fold-change of expression between Npc1−/− and control mice)
B1 | 1.52
B4 | −1.73
B5 | 1.61
B2 | −1.72
B6 | 1.55
B7 | 2.04
B8 | 2.42
B9 | 2.64
B10 | 2.27
B3 | −1.66

same assay, conditions: 11 weeks of age, negative = lower in Npc1−/−

Molecule | FC (fold-change of expression between Npc1−/− and control mice)
B1 | 1.87
B4 | −3.05
B5 | 1.54
B2 | −3.97
B6 | 1.63
B7 | 5.09
B8 | 3.83
B9 | 3.22
B10 | 3.32
B3 | −2.40

same assay, conditions: head prints "weeks" (column between 7 weeks and 11 weeks), negative = lower in Npc1−/−

Molecule | FC (fold-change of expression between Npc1−/− and control mice)
B1 | 1.50
B4 | −1.57
B5 | 1.76
B2 | −1.72
B6 | 1.48
B7 | 2.55
B8 | 2.65
B9 | 2.33
B10 | 3.21
B3 | −1.35
